This is an account of results in PubChem BioAssay AID248 (DTP/NCI, 2004).

The test system of the experiment is L1210 leukemia ip in BDF1 mice, survival T/C. The experiment in a line: NCI In Vivo Anticancer Drug Screen. Data for tumor model L1210 Leukemia (intraperitoneal) in B6D2F1 (BDF1) mice. Particulars: T/C endpoint: mean survival time, higher T/C = longer survival.
Setting [1] is: dose: 200.0 mg/kg/injection, schedule: Q04DX003 (ip), vehicle: saline with Tween-80.
[2] abbreviates: dose: 400.0 mg/kg/injection, schedule: Q04DX003 (ip), vehicle: saline with Tween-80.
[3] abbreviates: dose: 400.0 mg/kg/injection, schedule: Q04DX003 (ip), vehicle: Klucel (hydroxypropylcellulose) (HPC).
Where [4] appears, read: dose: 400.0 mg/kg/injection, schedule: Q01DX009 (ip), vehicle: saline.
Setting [5] is: dose: 400.0 mg/kg/injection, schedule: Q04DX003 (ip), vehicle: saline.
Setting [6] is: dose: 200.0 mg/kg/injection, schedule: Q01DX009 (ip), vehicle: saline.
Where [7] appears, read: dose: 400.0 mg/kg/injection, schedule: Q01DX001 (ip), vehicle: Klucel (hydroxypropylcellulose) (HPC).
[8] abbreviates: dose: 50.0 mg/kg/injection, schedule: Q01DX009 (ip), vehicle: saline.
Setting [9] is: dose: 100.0 mg/kg/injection, schedule: Q01DX001 (ip), vehicle: saline.
Setting [10] is: dose: 400.0 mg/kg/injection, schedule: Q01DX001 (ip), vehicle: saline.

The list does not hold the whole screen: it gathers tests that were run many times, whatever their T/C, doses with no T/C, and many T/C values between a quarter and a half above the control. Further doses and runs are listed elsewhere. T/C is the treated group as % of the vehicle group. Some doses have a count of surviving animals in place of a T/C: the source files T/C as zero there, which appears to mark a toxic dose or a test without result, not a measured value. Some doses without a T/C left all or most animals alive at the check, yet need not have been tolerated: the source hardly ever lists a survival T/C far under the control, and the zero likely stands for such cases as well. Survivors were counted at the toxicity check, usually on the fifth day, unless a day is given; later deaths do not show. Schedule codes are those of the source, read here as Q, the interval in days (D) or hours (H), X, the number of doses. Some doses were run more than once; the results are listed from low to high. Additions like (4×) give the number of equal values in this list. Some schedules carry Z or #; the key to these is not given. Where survival is the endpoint, this PubChem deposit counts one and a half times the control or more as active, and values a quarter to a half above the control carry no call in these data; other NCI protocols may use other cut-offs. Some T/C values carry the count of animals alive at the toxicity check (mostly the fifth day); without a count, all were alive then.

`CCOC(=O)NC(=S)n1ncnc1N`: the survivor count reads like this: (dose: 55.0 mg/kg/injection, schedule: Q01DX009 (ip), vehicle: saline with Tween-80) 4 of 6; (dose: 80.0 mg/kg/injection, schedule: Q01DX009 (ip), vehicle: saline with Tween-80) 0 of 6; (dose: 100.0 mg/kg/injection, schedule: Q04DX003 (ip), vehicle: saline with Tween-80) 1 of 6; under setting [1], 0 of 6; under setting [2], 0 of 6.
With `O=c1c2ccccc2n2nnc3cccc1c32`, the survivor count (dose: 200.0 mg/kg/injection, schedule: Q01DX001 (ip), vehicle: Klucel (hydroxypropylcellulose) (HPC)) was 6 of 6 and the survivor count under setting [3] is 6 of 6.
For `CCC(N)Cc1ccc(OC)c(OC)c1` (stereo not drawn), the survivor count runs as follows: under setting [4], 0 of 6; under setting [5], 1 of 6.
Regarding `CCN(CC)CCOC(=O)C(c1ccccc1)c1ccccc1`, the survivor count (dose: 300.0 mg/kg/injection, schedule: Q01DX001 (ip), vehicle: saline) is on record as 2 of 6.
As to `O=[N+]([O-])c1cc([As](=O)(O)O)ccc1Cl`, the survivor count was 3 of 6 (dose: 200.0 mg/kg/injection, schedule: Q01DX009 (ip), vehicle: Klucel (hydroxypropylcellulose) (HPC)) and 0 of 6 under setting [3].
Regarding `O=C(C(F)(F)F)C(F)(F)F`, the survivor count is, setting by setting: under setting [6], 0 of 6; under setting [4], 0 of 6.
For `OCCCCCCN=Cc1ccccc1O.OCCCCCCN=Cc1ccccc1O.[Cu]`, the survivor count is on record as 0 of 6 (dose: 150.0 mg/kg/injection, schedule: Q01DX001 (ip), vehicle: other) and 2 of 6 (dose: 300.0 mg/kg/injection, schedule: Q01DX001 (ip), vehicle: other).
Take `CC1CCC(=C(c2ccccc2)c2ccccc2)C(C)N1C` (stereo not drawn): the survivor count is given as 6 of 6 under setting [1] and 0 of 6 under setting [2].
With `CN(C(=O)NCCCl)C1CCC(C(=O)O)CC1` (stereo not drawn), the survivor count under setting [7] is recorded as 3 of 3.
As to `C=CCOC(OCC=C)C(OCC=C)OCC=C`, where the note is “dose: 100.0 mg/kg/injection, schedule: Q01DX009 (ip), vehicle: saline with Tween-80”, the survivor count was 6 of 6.
On to `N#[N+]c1c(O)cc(S(=O)(=O)O)c2ccccc12`, for which the survivor count is given as 6 of 6 under setting [6], 6 of 6 under setting [4] and 6 of 6 under setting [5].
Turning to `Cc1ccc(/C(=N\N=C(N)N)C2CC2)c(C)c1`, the survivor count is 0 of 6 (dose: 120.0 mg/kg/injection, schedule: Q01DX Z (ip), vehicle: methylcellulose (MC)) and 5 of 6 (dose: 120.0 mg/kg/injection, schedule: Q01DX Z (oral), vehicle: methylcellulose (MC)).
With `CN=NC(C)(C)OC(C)=O`, the survivor count reads like this: under setting [8], 1 of 6; under setting [9], 1 of 6; (dose: 200.0 mg/kg/injection, schedule: Q01DX001 (ip), vehicle: saline) 0 of 6; under setting [10], 0 of 6.
In the case of `Cc1c(C)c(O)c2c(c1C)C(C)C(=O)OC2=O` (stereo not drawn), the survivor count (dose: 80.0 mg/kg/injection, schedule: Q01DX001 (ip), vehicle: saline) was 0 of 6.
With `Cc1cccc(N=C(N)N=C(N)N)c1`, the survivor count under setting [2] was 1 of 6.
On to `NC(CCl)=NC1CCCCC1`, for which the survivor count (dose: 200.0 mg/kg/injection, schedule: Q04DX002 (ip), vehicle: saline) is on record as 0 of 3 and the survivor count (dose: 400.0 mg/kg/injection, schedule: Q04DX002 (ip), vehicle: saline) was 0 of 3.
Take `Cc1cc(C(=O)Nc2ccc(NC3=NCCN3)cc2)c(C)cc1C(=O)Nc1ccc(NC2=NCCN2)cc1`: the survivor count is 6 of 6 (dose: 0.94 mg/kg/injection, schedule: Q01DX Z (ip), vehicle: saline); 0 of 6 (dose: 60.0 mg/kg/injection, schedule: Q01DX Z (ip), vehicle: saline); 0 of 6 (dose: 120.0 mg/kg/injection, schedule: Q01DX Z (ip), vehicle: saline).
Regarding `CCCOCC(O)CNCCN` (stereo not drawn), the T/C (dose: 50.0 mg/kg/injection, schedule: Q01DX009 (ip), vehicle: Klucel (hydroxypropylcellulose) (HPC)) is 130 % of control.
With `Cc1ccc(NC(=O)CCc2ccc(N3C(N)=NC(N)=NC3(C)C)cc2)cc1S(=O)(=O)F`, the survivor count under setting [7] was 3 of 6.
Take `O=C1CCCc2cc3c(cc21)CCCC3`: the survivor count (dose: 400.0 mg/kg/injection, schedule: Q01DX009 (ip), vehicle: Klucel (hydroxypropylcellulose) (HPC)) is 1 of 6.
In the case of `CCCCCCN(CCCCCC)CCC(=O)Nc1ccc(S(=O)(=O)c2ccc(NC(=O)CCN(CCCCCC)CCCCCC)cc2)cc1`, the survivor count runs as follows: (dose: 100.0 mg/kg/injection, schedule: Q01DX001 (ip), vehicle: carboxymethylcellulose (CMC)) 2 of 4; (dose: 200.0 mg/kg/injection, schedule: Q01DX001 (ip), vehicle: carboxymethylcellulose (CMC)) 2 of 4; (dose: 400.0 mg/kg/injection, schedule: Q01DX001 (ip), vehicle: carboxymethylcellulose (CMC)) 0 of 4.
Consider `Nc1nc(N)nc(N)n1`, for which the survivor count runs as follows: (dose: 100.0 mg/kg/injection, schedule: Q04DX002 (ip), vehicle: Klucel (hydroxypropylcellulose) (HPC)) 3 of 3; (dose: 1500.0 mg/kg/injection, schedule: Q01DX009 (ip), vehicle: Klucel (hydroxypropylcellulose) (HPC)) 6 of 6; (dose: 2000.0 mg/kg/injection, schedule: Q01DX009 (ip), vehicle: Klucel (hydroxypropylcellulose) (HPC)) 6 of 6.
For the compound `CN1CCCCCC(=N\O)/C(=N/O)CCCCC1`, the survivor count under setting [10] is 2 of 6.
As to `CCN(CC)CCN(CCN(CC)CC)c1c(OC)cccc1OC`, the survivor count is listed as 3 of 6 (dose: 75.0 mg/kg/injection, schedule: Q01DX001 (ip), vehicle: acetone); 0 of 6 (dose: 150.0 mg/kg/injection, schedule: Q01DX001 (ip), vehicle: acetone); 0 of 6 (dose: 300.0 mg/kg/injection, schedule: Q01DX001 (ip), vehicle: acetone).
For `CCCCSCCN`, under “dose: 300.0 mg/kg/injection, schedule: Q01DX009 (ip), vehicle: Klucel (hydroxypropylcellulose) (HPC)”, the survivor count is recorded as 0 of 6.
In the case of `Cc1cccnc1N1CCNC1=O`, the survivor count is listed as 1 of 6 (dose: 200.0 mg/kg/injection, schedule: Q04DX003 (ip), vehicle: saline) and 0 of 6 under setting [5].
Turning to `S=P(N1CC1)(N1CC1)N1CC1.[Cl-].[Cl-].[NH2-].[NH2-].[Pt+4]`, the T/C reads like this: (dose: 2.7 mg/kg/injection, schedule: Q01DX009 (ip), vehicle: saline) 130 % of control; (dose: 4.1 mg/kg/injection, schedule: Q01DX009 (ip), vehicle: saline) 146 % of control; (dose: 6.25 mg/kg/injection, schedule: Q01DX009 (ip), vehicle: saline) 131 [5 of 6 alive] and 144 % of control; (dose: 9.3 mg/kg/injection, schedule: Q01DX009 (ip), vehicle: saline) 125 % of control. Further, the survivor count is, setting by setting: (dose: 12.5 mg/kg/injection, schedule: Q01DX009 (ip), vehicle: saline) 6 of 6; (dose: 25.0 mg/kg/injection, schedule: Q01DX009 (ip), vehicle: Klucel (hydroxypropylcellulose) (HPC)) 6 of 6; (dose: 25.0 mg/kg/injection, schedule: Q01DX009 (ip), vehicle: saline) 3 of 6, 4 of 6 (2×), 5 of 6, 6 of 6; under setting [8], 4 of 6, 5 of 6, 6 of 6; (dose: 100.0 mg/kg/injection, schedule: Q01DX009 (ip), vehicle: saline) 0 of 6 (3×), 1 of 6 (2×), 2 of 6; under setting [6], 0 of 6 (3×). Moreover, the survivor count under setting [4] is 0 of 6 (3×).
With `CC1CN1P1(N2CC2C)=NP(N2CC2C)(N2CC2C)=NP(N2CC2C)(N2CC2C)=N1` (stereo not drawn), the T/C runs as follows: under setting [9], 129 % of control; (dose: 115.0 mg/kg/injection, schedule: Q04DX003 (ip), vehicle: acetone) 130 % of control. The survivor count under setting [6] was 0 of 6 and the survivor count under setting [10] is 0 of 6.
As to `O=C1NC(=O)N(c2ccccc2)C(=O)/C1=C/c1ccccc1`, the survivor count under setting [7] is given as 0 of 6.
